In assay [1] the target is T1, MecA, bacterial two-hybrid fusion (T18 or T25 fragment of adenylate cyclase Cya) (Streptococcus mutans) (UniProt Q8DW33).
T1 sequence: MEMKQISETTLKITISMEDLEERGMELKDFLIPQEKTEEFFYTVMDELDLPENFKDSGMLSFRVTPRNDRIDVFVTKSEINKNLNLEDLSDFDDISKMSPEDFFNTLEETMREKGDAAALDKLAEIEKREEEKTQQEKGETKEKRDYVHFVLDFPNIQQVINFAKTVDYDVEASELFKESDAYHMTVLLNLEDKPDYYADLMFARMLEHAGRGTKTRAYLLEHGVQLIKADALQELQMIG
The experiment in a line: two-hybrid; BACTH bacterial two-hybrid (T18 and T25 fragments of B. pertussis adenylate cyclase) in E. coli BTH101; blue colonies on LB agar with X-gal (50 µg/mL) and IPTG (0.5 mM); for CcpA: the arrangement with CcpA fused to T18.

Chains of the proteins cited; added tags and fusions are not shown.
UniProt Q8DUI0: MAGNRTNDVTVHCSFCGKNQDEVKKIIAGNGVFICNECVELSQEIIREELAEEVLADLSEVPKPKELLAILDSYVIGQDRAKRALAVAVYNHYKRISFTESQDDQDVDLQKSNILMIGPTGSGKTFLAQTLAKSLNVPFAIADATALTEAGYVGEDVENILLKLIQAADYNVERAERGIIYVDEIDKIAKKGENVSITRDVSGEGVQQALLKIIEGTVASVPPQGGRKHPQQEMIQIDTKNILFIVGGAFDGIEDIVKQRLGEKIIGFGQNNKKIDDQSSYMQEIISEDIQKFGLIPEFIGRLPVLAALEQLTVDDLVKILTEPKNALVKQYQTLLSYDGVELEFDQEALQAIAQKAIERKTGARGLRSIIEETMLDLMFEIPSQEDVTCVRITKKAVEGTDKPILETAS
UniProt O07329: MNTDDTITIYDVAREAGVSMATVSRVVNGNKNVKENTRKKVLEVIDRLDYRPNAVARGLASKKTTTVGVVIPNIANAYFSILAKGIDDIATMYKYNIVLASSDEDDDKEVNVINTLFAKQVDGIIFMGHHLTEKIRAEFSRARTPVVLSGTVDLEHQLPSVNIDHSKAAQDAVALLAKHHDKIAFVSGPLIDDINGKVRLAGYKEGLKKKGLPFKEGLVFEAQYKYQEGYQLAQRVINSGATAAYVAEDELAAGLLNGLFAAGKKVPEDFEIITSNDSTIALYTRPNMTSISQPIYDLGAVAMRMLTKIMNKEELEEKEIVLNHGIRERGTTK

Assay [2] has as its target T1, MecA, bacterial two-hybrid fusion (T18 or T25 fragment of adenylate cyclase Cya) (Streptococcus mutans). In words: two-hybrid; BACTH bacterial two-hybrid in E. coli BTH101; blue colonies on LB agar with X-gal and IPTG; the arrangement with CcpA fused to the T25 domain.

These are yes or no findings as the source states them, for the method shown. Some results given as binding are weak or reduced against the parent protein; the word gives no strength. Sequences can lack the tags named with a protein.

Regarding “ClpX, bacterial two-hybrid fusion (T18 or T25 fragment of adenylate cyclase Cya) (from UniProt Q8DUI0 1-410)”, the binding result in assay [1] is “binds”.
As for “CcpA, bacterial two-hybrid fusion (T18 or T25 fragment of adenylate cyclase Cya) (from UniProt O07329 1-333)”, the values for the binding entry in assay [2] and in assay [1] were “binds weakly” and “binds”, respectively.

For the origin of these results see PMC11656736.
